Experimental data from article PMC4381053.
No constants are given. Whether binding was seen depends on the method and setting. Binding seen in cells or lysates may run through a third protein. Some entries that bind do so weakly or less than the wild type.

Amino acid sequences for entries named in this document (tags omitted). A change or cut given only in a name is not applied to a line headed by its entry. Chains listed by the source or under a name are the forms on record and can include a tag or linker.
UniProt P32639: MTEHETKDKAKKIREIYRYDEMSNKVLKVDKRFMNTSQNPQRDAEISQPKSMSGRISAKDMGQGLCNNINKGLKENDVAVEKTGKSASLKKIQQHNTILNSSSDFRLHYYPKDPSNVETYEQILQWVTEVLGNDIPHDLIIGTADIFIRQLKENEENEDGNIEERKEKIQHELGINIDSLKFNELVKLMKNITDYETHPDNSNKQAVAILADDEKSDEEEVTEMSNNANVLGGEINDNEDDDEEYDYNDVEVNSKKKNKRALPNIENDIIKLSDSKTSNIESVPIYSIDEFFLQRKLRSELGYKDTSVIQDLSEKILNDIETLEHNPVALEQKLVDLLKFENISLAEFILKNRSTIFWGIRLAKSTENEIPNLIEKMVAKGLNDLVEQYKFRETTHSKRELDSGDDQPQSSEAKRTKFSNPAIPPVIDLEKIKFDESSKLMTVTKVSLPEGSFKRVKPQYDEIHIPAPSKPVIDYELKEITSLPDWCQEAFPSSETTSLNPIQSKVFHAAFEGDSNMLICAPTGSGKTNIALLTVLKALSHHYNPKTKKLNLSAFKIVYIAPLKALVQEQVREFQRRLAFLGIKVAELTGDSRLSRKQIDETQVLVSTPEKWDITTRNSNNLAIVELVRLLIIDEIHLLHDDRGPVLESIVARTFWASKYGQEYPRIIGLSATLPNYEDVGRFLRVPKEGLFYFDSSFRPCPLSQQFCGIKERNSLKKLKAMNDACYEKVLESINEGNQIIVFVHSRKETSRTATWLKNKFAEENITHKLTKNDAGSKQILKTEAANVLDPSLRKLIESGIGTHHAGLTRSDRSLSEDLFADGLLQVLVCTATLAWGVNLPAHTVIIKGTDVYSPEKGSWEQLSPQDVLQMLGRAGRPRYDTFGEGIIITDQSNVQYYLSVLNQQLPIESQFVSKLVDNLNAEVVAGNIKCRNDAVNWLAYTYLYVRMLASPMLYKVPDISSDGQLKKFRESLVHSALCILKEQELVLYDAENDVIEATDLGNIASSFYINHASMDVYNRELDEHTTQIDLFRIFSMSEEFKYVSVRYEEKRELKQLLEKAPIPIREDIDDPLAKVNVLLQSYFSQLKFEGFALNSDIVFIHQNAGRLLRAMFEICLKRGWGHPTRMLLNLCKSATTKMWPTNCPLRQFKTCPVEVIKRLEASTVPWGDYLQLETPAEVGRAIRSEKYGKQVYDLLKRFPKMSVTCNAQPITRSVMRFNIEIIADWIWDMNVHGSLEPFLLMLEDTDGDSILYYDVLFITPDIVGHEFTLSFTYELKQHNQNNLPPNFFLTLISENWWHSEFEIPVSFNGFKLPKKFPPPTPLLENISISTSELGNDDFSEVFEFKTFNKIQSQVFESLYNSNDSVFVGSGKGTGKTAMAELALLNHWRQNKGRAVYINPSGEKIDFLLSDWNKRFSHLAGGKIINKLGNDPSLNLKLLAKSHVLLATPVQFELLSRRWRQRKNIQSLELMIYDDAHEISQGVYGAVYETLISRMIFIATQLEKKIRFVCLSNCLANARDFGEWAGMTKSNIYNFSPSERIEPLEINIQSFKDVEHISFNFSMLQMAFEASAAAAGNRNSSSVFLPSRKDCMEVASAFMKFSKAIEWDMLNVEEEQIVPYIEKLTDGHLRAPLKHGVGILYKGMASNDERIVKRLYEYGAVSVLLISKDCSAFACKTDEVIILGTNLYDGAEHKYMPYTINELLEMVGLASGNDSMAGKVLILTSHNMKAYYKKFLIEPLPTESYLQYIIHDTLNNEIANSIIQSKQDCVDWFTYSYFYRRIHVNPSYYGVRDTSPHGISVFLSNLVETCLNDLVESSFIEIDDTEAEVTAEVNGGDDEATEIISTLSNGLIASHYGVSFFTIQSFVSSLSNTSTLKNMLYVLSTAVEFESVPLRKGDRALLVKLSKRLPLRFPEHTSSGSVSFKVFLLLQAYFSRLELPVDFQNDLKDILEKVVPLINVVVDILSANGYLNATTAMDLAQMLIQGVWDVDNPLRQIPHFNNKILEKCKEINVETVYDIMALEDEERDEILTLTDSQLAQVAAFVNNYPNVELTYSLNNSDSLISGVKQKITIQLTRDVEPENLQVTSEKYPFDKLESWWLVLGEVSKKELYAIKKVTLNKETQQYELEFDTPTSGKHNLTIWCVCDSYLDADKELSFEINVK
polyoma-tagged Brr2-Δ120 (P32639, form named): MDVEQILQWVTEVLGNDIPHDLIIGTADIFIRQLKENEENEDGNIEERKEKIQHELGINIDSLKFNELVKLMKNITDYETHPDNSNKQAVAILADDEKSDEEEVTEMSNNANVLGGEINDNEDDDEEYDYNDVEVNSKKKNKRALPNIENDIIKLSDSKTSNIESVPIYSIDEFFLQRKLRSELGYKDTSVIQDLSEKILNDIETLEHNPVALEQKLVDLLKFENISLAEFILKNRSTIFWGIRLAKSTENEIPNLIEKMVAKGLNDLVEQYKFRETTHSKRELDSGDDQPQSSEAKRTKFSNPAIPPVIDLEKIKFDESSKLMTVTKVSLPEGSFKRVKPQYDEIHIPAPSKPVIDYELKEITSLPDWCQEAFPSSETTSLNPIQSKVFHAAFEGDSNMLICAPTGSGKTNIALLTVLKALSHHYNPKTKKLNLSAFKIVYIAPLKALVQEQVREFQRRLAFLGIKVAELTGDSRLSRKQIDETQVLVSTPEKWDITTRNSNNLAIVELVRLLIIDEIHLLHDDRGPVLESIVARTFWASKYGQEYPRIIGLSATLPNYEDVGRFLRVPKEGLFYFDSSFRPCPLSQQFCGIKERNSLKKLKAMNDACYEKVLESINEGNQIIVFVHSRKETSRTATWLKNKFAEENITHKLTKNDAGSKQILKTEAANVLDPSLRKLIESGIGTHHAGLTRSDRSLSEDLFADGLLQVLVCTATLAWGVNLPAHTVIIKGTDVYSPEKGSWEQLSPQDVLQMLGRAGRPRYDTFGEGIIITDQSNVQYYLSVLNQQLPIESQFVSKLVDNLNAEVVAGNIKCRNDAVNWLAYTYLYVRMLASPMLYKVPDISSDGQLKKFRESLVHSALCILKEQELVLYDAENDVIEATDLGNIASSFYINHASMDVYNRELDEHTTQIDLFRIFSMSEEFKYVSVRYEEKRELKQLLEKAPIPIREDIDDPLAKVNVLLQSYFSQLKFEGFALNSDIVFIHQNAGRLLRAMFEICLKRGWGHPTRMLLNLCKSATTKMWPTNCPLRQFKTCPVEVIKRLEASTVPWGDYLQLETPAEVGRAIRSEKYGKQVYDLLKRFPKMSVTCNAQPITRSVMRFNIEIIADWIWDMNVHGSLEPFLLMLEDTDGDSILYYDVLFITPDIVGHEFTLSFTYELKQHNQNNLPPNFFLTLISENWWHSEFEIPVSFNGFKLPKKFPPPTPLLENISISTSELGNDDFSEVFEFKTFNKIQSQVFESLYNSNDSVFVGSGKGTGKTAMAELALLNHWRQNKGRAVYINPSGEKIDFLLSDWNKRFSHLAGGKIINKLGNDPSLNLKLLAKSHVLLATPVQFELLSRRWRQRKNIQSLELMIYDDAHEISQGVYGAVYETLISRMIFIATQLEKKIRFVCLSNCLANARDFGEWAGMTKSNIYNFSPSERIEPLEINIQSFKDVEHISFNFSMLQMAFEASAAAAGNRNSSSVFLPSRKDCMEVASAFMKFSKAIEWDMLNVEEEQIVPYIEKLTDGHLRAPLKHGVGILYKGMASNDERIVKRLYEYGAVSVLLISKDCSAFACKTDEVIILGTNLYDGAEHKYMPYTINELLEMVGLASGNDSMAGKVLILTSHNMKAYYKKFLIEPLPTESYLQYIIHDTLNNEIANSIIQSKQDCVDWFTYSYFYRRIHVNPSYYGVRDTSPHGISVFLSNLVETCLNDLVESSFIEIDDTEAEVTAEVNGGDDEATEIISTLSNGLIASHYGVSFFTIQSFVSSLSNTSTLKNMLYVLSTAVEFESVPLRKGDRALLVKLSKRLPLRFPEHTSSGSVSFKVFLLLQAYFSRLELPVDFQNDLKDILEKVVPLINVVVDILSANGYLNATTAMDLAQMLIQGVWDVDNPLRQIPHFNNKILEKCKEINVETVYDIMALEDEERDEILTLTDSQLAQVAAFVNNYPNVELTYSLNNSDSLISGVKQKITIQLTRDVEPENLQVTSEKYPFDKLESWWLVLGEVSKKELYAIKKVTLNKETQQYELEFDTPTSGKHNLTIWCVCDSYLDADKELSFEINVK

Experiments:
[1] = biological target: polyoma-tagged WT Brr2 (S. cerevisiae) (UniProt P32639); test: co-IP; polyoma-tagged Brr2 immunoprecipitated with an anti-polyoma antibody from yeast whole cell lysate; associated proteins by Western blot
[2] = biological target: polyoma-tagged Brr2-Δ120 (S. cerevisiae) (UniProt P32639); test: as above

binding [1]: binds | binding [2]: binds
B1: Snu114 (protein, UniProt P36048 1-1008)
chain: MEGDDLFDEFGNLIGVDPFDSDEEESVLDEQEQYQTNTFEGSGNNNEIESRQLTSLGSKKELGISLEHPYGKEVEVLMETKNTQSPQTPLVEPVTERTKLQEHTIFTQLKKNIPKTRYNRDYMLSMANIPERIINVGVIGPLHSGKTSLMDLLVIDSHKRIPDMSKNVELGWKPLRYLDNLKQEIDRGLSIKLNGSTLLCTDLESKSRMINFLDAPGHVNFMDETAVALAASDLVLIVIDVVEGVTFVVEQLIKQSIKNNVAMCFVINKLDRLILDLKLPPMDAYLKLNHIIANINSFTKGNVFSPIDNNIIFASTKLGFTFTIKEFVSYYYAHSIPSSKIDDFTTRLWGSVYYHKGNFRTKPFENVEKYPTFVEFILIPLYKIFSYALSMEKDKLKNLLRSNFRVNLSQEALQYDPQPFLKHVLQLIFRQQTGLVDAITRCYQPFELFDNKTAHLSIPGKSTPEGTLWAHVLKTVDYGGAEWSLVRIYSGLLKRGDTVRILDTSQSESRQKRQLHDISKTETSNEDEDEDDETPSCEVEEIGLLGGRYVYPVHEAHKGQIVLIKGISSAYIKSATLYSVKSKEDMKQLKFFKPLDYITEAVFKIVLQPLLPRELPKLLDALNKISKYYPGVIIKVEESGEHVILGNGELYMDCLLYDLRASYAKIEIKISDPLTVFSESCSNESFASIPVSNSISRLGEENLPGLSISVAAEPMDSKMIQDLSRNTLGKGQNCLDIDGIMDNPRKLSKILRTEYGWDSLASRNVWSFYNGNVLINDTLPDEISPELLSKYKEQIIQGFYWAVKEGPLAEEPIYGVQYKLLSISVPSDVNIDVMKSQIIPLMKKACYVGLLTAIPILLEPIYEVDITVHAPLLPIVEELMKKRRGSRIYKTIKVAGTPLLEVRGQVPVIESAGFETDLRLSTNGLGMCQLYFWHKIWRKVPGDVLDKDAFIPKLKPAPINSLSRDFVMKTRRRKGISTGGFMSNDGPTLEKYISAELYAQLRENGLVP
